Assay results taken from article PMC4294777.
These are yes or no findings as the source states them, for the method shown. In cells and extracts the contact can be indirect. Some binding calls cover weakened binding; strength is not graded here. Where a sequence is shown, tags or fusion partners need not be part of it.

Biological target: T1, Klp5-3FLAG (fission yeast) (UniProt O14343)
T1 sequence: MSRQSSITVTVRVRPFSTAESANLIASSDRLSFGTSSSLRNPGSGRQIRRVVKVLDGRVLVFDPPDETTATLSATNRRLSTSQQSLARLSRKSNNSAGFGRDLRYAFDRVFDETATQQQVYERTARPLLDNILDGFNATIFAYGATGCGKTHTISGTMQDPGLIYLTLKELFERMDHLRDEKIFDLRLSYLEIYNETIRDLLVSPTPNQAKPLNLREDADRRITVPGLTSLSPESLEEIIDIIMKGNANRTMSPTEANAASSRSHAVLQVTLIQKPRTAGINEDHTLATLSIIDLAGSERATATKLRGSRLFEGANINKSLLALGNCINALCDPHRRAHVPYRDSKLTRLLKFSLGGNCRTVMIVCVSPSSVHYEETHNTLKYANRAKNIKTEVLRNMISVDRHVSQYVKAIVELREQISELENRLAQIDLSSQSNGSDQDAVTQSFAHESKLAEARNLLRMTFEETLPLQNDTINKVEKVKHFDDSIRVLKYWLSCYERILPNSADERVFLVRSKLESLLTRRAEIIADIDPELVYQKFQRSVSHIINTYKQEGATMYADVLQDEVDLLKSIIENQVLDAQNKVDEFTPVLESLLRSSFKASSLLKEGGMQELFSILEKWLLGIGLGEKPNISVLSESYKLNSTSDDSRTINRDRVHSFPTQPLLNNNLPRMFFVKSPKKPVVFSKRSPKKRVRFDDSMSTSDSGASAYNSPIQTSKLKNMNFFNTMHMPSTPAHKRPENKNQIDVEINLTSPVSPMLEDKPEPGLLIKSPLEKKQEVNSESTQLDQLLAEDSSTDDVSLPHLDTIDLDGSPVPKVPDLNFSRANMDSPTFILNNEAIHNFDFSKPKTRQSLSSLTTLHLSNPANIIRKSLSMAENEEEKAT
Assay: co-IP; protein extracts (4 mg or 8 mg) of metaphase-arrested cut9-665 cells (36°C, 2.5 hours) added to protein A Dynabeads coated with anti-Flag antibodies; blotted with anti-Flag and anti-Myc

- binding: binds
B1: Alp7-Myc (protein, UniProt Q9URY2 1-474)
chain: MSDIVSSSTDYSRRSPSSSSIGTNETDHTGFHEKRQGASSESLIPPAQRSSEESMPAPKLFPKLTSKPNPQLNLKDTLNKRVSDRLQALELNKSFDFSGTPRPMHPISHPLSQHKTPEFKHRKRNVESILTPKNPSLFSSSNAASQRGSLNTAPSNFAYSHSSSLQTSASSRPPVLSNGSFPRQTNTAPLNPPVHLKDNIRNSATPSTSQADIPTQYPINSTQKQQAKYEAEIEGYKAKLAGTYHEISVLQNTIVNVSGQLIAVNDQLQQLRSGKASTSPSTKDTNMRLVEGHNEETLALQRGKYTQEEVDKLIQERMEKVAEDLHAQYSAKHTQKINAFKANYARKYEATIQELQNQIGTAPNAPKISNSNWEEERRALKADNQTLQKQLEKAIQERQDMSDFLNNFKADMAKSDKLLMQQQSQQTGDLETLRLQLQALQEELRVEREERQQLIQMSEDLVIAMDQLNLEQKS
